These are yes or no findings as the source states them, for the method shown.
Target: 125I-insulin
Experiment: condition: up to 1 mg per well of TD-1; ~30,000 cpm 125I-insulin per well; 125I-insulin added to ELISA wells precoated with TD-1, bound radioactivity counted after washing

ACSSSPSKHCG [TD-1 peptide (…)]
binding: no binding
